This experiment is described as follows: qHTS Assay for Lipid Storage Modulators in Drosophila S3 Cells.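 On cell number change: cells counted by Cell Tracker Red CMTPX staining in the red channel.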 The following applies: BODIPY lipid droplet fluorescence, 18-24 h; for cell number change: measured here: cell count max response, cells fed with added oleic acid. In short, it runs like this: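 Laser-scanning cytometry quantifies lipid droplet accumulation (500–530 nm total intensity; droplet/cell object ratio) in oleic acid-fed (400 uM added) Drosophila S3 cells treated with a concentration series. 20 uM Triacsin C defined 100% inhibition.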
On the technique in general: qHTS replaces the single test concentration by a dilution series.

The mark [1] stands for this setting: measured here: lipid fluorescence (Fed channel) AC50, cells fed with added oleic acid.
Where [2] appears, read: measured here: cell number channel AC50, cells fed with added oleic acid.

The list shows a part of the results. These are further read-outs of the screen, such as a control signal, another cell line or another target. No call is given for them. The list favours compounds with an active or inconclusive main result. The note in brackets gives the kind of curve behind each potency; many fits are weak.

Here are results for 60 compounds from PubChem BioAssay AID2685 (National Center for Advancing Translational Sciences (NCATS), 2010).

What is called AC50 is the concentration giving half of the maximal activity seen. Lower therefore signals activity at low concentration. With `COc1ccccc1NC(=O)N(Cc1ccc2c(c1)OCO2)Cc1nc2ccccc2c(=O)[nH]1`, the cell number change came out at 27.9%. The AC50 under setting [1] is 0.461 µM [rising, full curve].

For `COC(=O)c1ccc(C)c(NC(=O)c2nn(C)c(=O)c3ccccc23)c1`, the cell number change amounted to 68.5%. Also, the AC50 under setting [2] was 0.058 µM [rising, full curve, poor fit]. Further, the AC50 under setting [1] is 0.82 µM [rising, full curve].

Regarding `CC(=O)Nc1ccc(S(=O)(=O)NC2CCCCCC2)cc1`, the cell number change was found to be 4.2%.

On to `Cc1ccc(S(=O)(=O)N2CCCCC2)cc1NC(=O)CSc1ncn[nH]1`, for which the cell number change stood at 19%. Under setting [1], the half-maximal activity concentration (AC50) is 0.092 µM [rising, full curve, poor fit].

Turning to `CN1CCN(CCCNC(=O)CCC(=O)N2CCOc3ccccc32)CC1`, the cell number change stood at 11.2%. Also, the AC50 under setting [1] is 16.4 µM [rising, single point].

Take `Cc1ccc(CNC(=O)COC(=O)C2CC2)cc1`: the cell number change is -39.9%. The AC50 under setting [2] was 20.6 µM [falling, single point]. Further, under setting [1], the AC50 is 14.6 µM [falling, single point].

For `O=C(O)c1cc(=O)c2cc(Cl)ccc2o1`, the AC50 under setting [1] was 6.51 µM [falling, full curve].

Consider `Cc1ccccc1NC(=O)Cc1nc(COC(=O)c2ccc(S(C)(=O)=O)c([N+](=O)[O-])c2)cs1`, for which the cell number change was -38.5%. Besides, under setting [2], the AC50 was 11.6 µM [falling, partial curve]. Also, the AC50 under setting [1] was 0.411 µM [falling, full curve].

Consider `CC(=O)c1ccc(N2CCN(C(=O)CCS(=O)(=O)c3ccc(C)cc3)CC2)cc1`, for which the cell number change is -15.4%. Also, the AC50 under setting [1] was 2.31 µM [rising, partial curve].

In the case of `CN(CCC(=O)Nc1cc(S(=O)(=O)N(C)C)ccc1Cl)CC(=O)Nc1ccc(F)cc1`, the cell number change is 10.3%. The concentration at half-maximal activity (AC50) under setting [1] was 6.51 µM [rising, single point].

`Cc1cccc(C(=O)Nc2sc(C(=O)N3CCCC3)c(C)c2C#N)c1`: the cell number change worked out at 14%. Under setting [1], the AC50 is 0.116 µM [falling, full curve, poor fit].

With `CCn1c(OC)nc2c1c(=O)n(C)c(=O)n2C`, the cell number change worked out at 13.3%. Further, under setting [1], the AC50 was 0.731 µM [rising, partial curve].

With `COc1ccccc1NC(=O)C1CC(=O)N(c2ccc(F)cc2)C1` (stereo not drawn), the AC50 under setting [1] is 0.58 µM [falling, single point].

`CC(C)n1c(-c2ccc(C(C)(C)C)cc2)n[nH]c1=S`: the cell number change was -33.9%.

In the case of `CCOc1ccc(CCNC(=O)c2nn(C)c3c2CS(=O)(=O)c2ccccc2-3)cc1OCC`, the AC50 is 0.146 µM [rising, full curve, poor fit] under setting [2] and 4.11 µM [rising, single point] under setting [1].

For the compound `CCN(CC(=O)NCc1cccs1)CC(=O)Nc1cccc(S(N)(=O)=O)c1`, the cell number change was -5.51%.

On to `Cc1ccc(S(=O)(=O)NCCNc2ccc([N+](=O)[O-])cc2C(F)(F)F)cc1`, for which the cell number change is -0.197%.

In the case of `COCCn1c(-c2ccccc2)nc2ccccc21`, the cell number change is 4.7%. Besides, under setting [1], the AC50 is 0.0058 µM [rising, full curve, poor fit].

For the compound `Cn1c2ccccc2c2cc(/C=N/NC(=O)c3ccc(O)cc3O)ccc21`, the cell number change was -38.8%. Besides, the AC50 under setting [2] is 17.8 µM [falling, partial curve].

On to `CCc1ccc(NC(=O)NNC(=O)c2ccc3ccccc3c2O)cc1`, for which the cell number change came to 31%. The AC50 under setting [2] was 1.64 µM [rising, partial curve, poor fit]. The AC50 under setting [1] is 0.13 µM [rising, full curve, poor fit].

On to `O=C(NC1CCSc2ccccc21)c1ccc(C(F)(F)F)cc1` (stereo not drawn), for which the cell number change stood at 52.1%. For the same compound, the AC50 under setting [2] is 29.1 µM [rising, single point].

For the compound `COCCn1c(C)cc(C(=O)COC(=O)CNC(=O)c2ccco2)c1C`, the cell number change came to 7.64%. Besides, under setting [1], the AC50 is 0.206 µM [falling, single point].

For `COc1cccc(CC(=O)N[C@@H](CCSC)c2nc3ccccc3[nH]2)c1`, the cell number change is 6.42%.

Regarding `Cc1cc(C)nc(N/N=C/c2cc3c(cc2[N+](=O)[O-])OCO3)n1`, the cell number change amounted to 16.9%. The AC50 under setting [2] was 4.11 µM [rising, partial curve, poor fit]. For the same compound, under setting [1], the AC50 is 0.116 µM [rising, partial curve, poor fit].

As to `c1ccc2c(c1)ncn2CCn1cnc2ccccc21`, the cell number change came out at 33.2%. The AC50 under setting [2] is 0.206 µM [rising, full curve, poor fit]. Moreover, the AC50 under setting [1] is 29.1 µM [rising, single point].

Consider `O=C(CCCOc1ccccc1)NCc1ccco1`, for which the cell number change was 154%.

Take `COc1ccc(NC(=O)CCCCCN2C(=O)[C@@H]3Cc4ccccc4CN3C2=O)cc1Cl`: the cell number change was -6.84%. Besides, the AC50 under setting [1] is 3.66 µM [rising, partial curve, poor fit].

Turning to `Cc1cc(NS(=O)(=O)c2ccc(NC(=O)c3ccc(Cl)cc3[N+](=O)[O-])cc2)no1`, the cell number change is -20.7%.

With `CCOc1ccc(C(=O)CCC(=O)N2CCC(C(=O)OC)CC2)cc1`, under setting [1], the half-maximal activity concentration (AC50) was 29.1 µM [falling, single point].

`COc1ccc(CCC(=O)Nc2ccc(C)c([N+](=O)[O-])c2)cc1`: the cell number change is 4.55%. In addition, under setting [1], the AC50 was 2.91 µM [rising, full curve, poor fit].

For the compound `CCOC(=O)N1CCC(NC(=O)C2CCN(S(=O)(=O)c3c(C)noc3C)CC2)CC1`, the cell number change is 21.9%.

For the compound `COc1cccc(OC)c1OCCCCCCN1CCN(C)CC1`, the cell number change is -11.1%. Further, under setting [1], the AC50 was 8.2 µM [falling, partial curve].

For the compound `O=S(=O)(c1ccccc1Cl)N1CCC(O)(c2ccc3c(c2)OCO3)CC1`, the cell number change was 0.534%. Under setting [1], the AC50 was 0.326 µM [falling, partial curve].

With `O=C(N/N=C/c1cn(-c2ccccc2)nc1-c1cc2ccccc2o1)c1cccnc1`, the cell number change is -58%. The AC50 under setting [2] is 29.1 µM [falling, single point]. In addition, the AC50 under setting [1] is 20.6 µM [falling, single point].

Regarding `COc1cccc(NC(=O)COC(=O)C2CCN(S(=O)(=O)c3cccs3)CC2)c1`, under setting [1], the AC50 was 6.51 µM [rising, single point].

As for `COC(=O)NCC12CC3CC(C1)CC(CNC(=O)OC)(C3)C2`, the cell number change was -2.38%. For the same compound, the AC50 under setting [1] is 32.6 µM [falling, single point].

On to `CC(=O)c1c(C)[nH]c(C(=O)Nc2cccc(S(=O)(=O)N3CCCCC3)c2)c1C`, for which the cell number change was -33.3%. Besides, the AC50 under setting [2] is 18.4 µM [falling, partial curve]. For the same compound, the AC50 under setting [1] was 3.26 µM [falling, full curve].

`CCOC(=O)CN(C(=O)Cn1nnc(-c2ccc(C)cc2)n1)C(CC)C(=O)NC1CCCC1` (stereo not drawn): the cell number change was determined as 5.17%.

Turning to `O=C(NCc1ccncc1)C1COc2ccccc2O1` (stereo not drawn), the cell number change worked out at 21.1%. Moreover, the AC50 under setting [1] is 18.4 µM [rising, single point].

`CCOc1[nH]n(-c2ccc(Cl)cc2)c(=O)c1C=Nc1ccc(OC)cc1`: the cell number change is -28.4%.

As to `O=C(CCCn1c(=O)[nH]c2ccsc2c1=O)N1CCN(Cc2ccc3c(c2)OCO3)CC1`, the cell number change was -44.6%. For the same compound, under setting [2], the AC50 was 23.1 µM [falling, single point].

As for `CC(/C=N/NC(=O)c1cc(-c2ccc(Cl)cc2)nc2ccccc12)=C\c1ccco1`, the AC50 runs as follows: under setting [2], 3.26 µM [rising, single point]; under setting [1], 9.2 µM [rising, partial curve].

Take `COc1ccc(Sc2nc(-c3ccccn3)ncc2OC)cc1`: the cell number change was -18.1%. Under setting [1], the AC50 is 0.411 µM [rising, full curve, poor fit].

For the compound `O=C(OCC#CCSc1nnc(-c2cccc3ccccc23)o1)c1cnc[nH]1`, the cell number change was found to be 38.8%. In addition, the AC50 under setting [2] was 0.517 µM [rising, full curve, poor fit]. The AC50 under setting [1] was 23.1 µM [rising, partial curve, poor fit].

With `Cc1cc(NC(=O)c2ccccc2O)nc(C)n1`, the cell number change is -0.366%. The AC50 under setting [1] was 4.61 µM [falling, single point].

Turning to `Cc1cc(C(F)(F)F)n(-c2nc(C(=O)NN)cs2)n1`, the cell number change was determined as 55.5%. In addition, under setting [2], the AC50 is 5.17 µM [rising, single point]. For the same compound, the AC50 under setting [1] is 25.9 µM [rising, single point].

Turning to `O=C(CSc1nnc(-c2ccco2)o1)N1c2ccccc2CCc2ccccc21`, the cell number change is -38.8%. For the same compound, the AC50 under setting [2] was 2.59 µM [falling, full curve].

Regarding `CC1CCCN(C(=O)CN2CCN(C(=O)c3ccco3)CC2)C1` (stereo not drawn), the cell number change was -5.4%. The AC50 under setting [2] is 1.03 µM [falling, full curve]. For the same compound, the AC50 under setting [1] is 0.326 µM [falling, full curve].

On to `Cc1occc1C(=O)NCc1cccc(CNC(=O)c2ccoc2C)c1`, for which the cell number change is -34.3%. Moreover, under setting [2], the AC50 is 20.6 µM [falling, partial curve, poor fit].

Regarding `CC(OC(=O)c1ccc([N+](=O)[O-])s1)C(=O)NC1CCCCC1C` (stereo not drawn), the cell number change is -0.0612%. For the same compound, under setting [1], the AC50 is 0.259 µM [rising, full curve, poor fit].

As for `CN1CCN(NC(=O)/C=C/c2ccc(C(C)(C)C)cc2)CC1`, the cell number change was -6.44%. Besides, the AC50 under setting [1] was 0.58 µM [falling, single point].

`Cc1cccc(C)c1NC(=O)CN(C)C(=O)c1ccccc1OCc1ccc(F)cc1`: the AC50 under setting [1] is 0.0651 µM [rising, full curve, poor fit].

On to `c1cc(-c2noc(CCC3CCCC3)n2)ccn1`, for which the cell number change was -9.18%. For the same compound, under setting [1], the AC50 is 7.31 µM [rising, partial curve].

On to `Cc1csc2ncc(C(=O)NCCc3ccccc3)c(=O)n12`, for which the AC50 was 0.411 µM [rising, full curve] under setting [2] and 0.651 µM [rising, full curve] under setting [1].

Turning to `O=C(NCCCO)c1ccc(CSc2nc3ccccc3[nH]2)cc1`, the cell number change was -24.1%. Further, under setting [1], the AC50 was 16.4 µM [falling, single point].

Turning to `Cc1nc2cc(Nc3nnc(-c4ccccc4)c4ccccc34)ccc2n1C`, the AC50 under setting [1] was 8.2 µM [falling, partial curve].

Consider `Cc1ccc(S(=O)(=O)NCC(=O)OCc2nnc(-c3ccccc3)o2)cc1`, for which the AC50 under setting [1] is 0.58 µM [rising, single point].

As to `COc1cc(/C=N/NC(=O)c2cccnc2)ccc1OS(=O)(=O)c1ccc(C)cc1`, the cell number change stood at 1.91%.

Regarding `O=C(CSc1nc(O)cc(=O)[nH]1)N1CCCc2ccccc21`, the cell number change was -22.7%. For the same compound, the AC50 under setting [1] is 0.164 µM [falling, full curve, poor fit].

Take `CCc1ccc(NC(=O)C2CCN(S(=O)(=O)c3ccc4c(c3)NC(=O)CO4)CC2)cc1`: the cell number change is -21.2%. Further, the AC50 under setting [1] was 4.11 µM [rising, partial curve, poor fit].
